Strings that start with PEPTIDE1 are HELM notation: dots part the residues, brackets hold end groups and non-standard residues.
Assay: general procedure: solution-phase peptide synthesis; TFFH/DIPEA (fragment coupling); PyAOP/sym-collidine (cyclisation)
[1] = late stage modification step, HPLC

| Substance | step yield (late stage modification step) | also measured |
| --- | --- | --- |
| Boc-D-MeAla-EtVal-Val-MeLeu-Ala-D-Ala-MeLeu-MeLeu-MeVal-MeBmt(OAc)-Abu-NMe-CH2—CH2—OH | 81% |  |
| Boc-D-MeAla-EtVal-Val-MeLeu-Ala-D-Ala-MeLeu-MeLeu-MeVal-MeBmt(OAc)-Abu-Sar-OMe |  | step yield (coupling step): 90% |
| H-D-MeAla-EtVal-Val-MeLeu-Ala-D-Ala-MeLeu-MeLeu-MeVal-MeBmt-Abu-OH | 64% | crude HPLC purity [1]: 86% |
| H-MeLeu-Val-MeLeu-Ala-D-Ala-MeLeu-MeLeu-MeVal-MeBmt(OAc)-Abu-Sar-OMe | 76% | final HPLC purity [1]: 98% |
| H-Val-MeLeu-Ala-D-Ala-MeLeu-MeLeu-MeVal-MeBmt(OAc)-Abu-Sar-OMe | 61% yield | final HPLC purity [1]: 99% |
| MeBmt(OAc)-CsA | 92% |  |
| PEPTIDE1{[MeBmt].[Abu].[D-MeAla].[EtVal].V.[MeLeu].A.[dA].[MeLeu].[MeLeu].[MeVal]}$PEPTIDE1,PEPTIDE1,1:R1-11:R2$$$V2.0 |  | final HPLC purity (cyclisation step, HPLC): 100%; cyclisation yield (cyclisation step, on linear precursor): 59% |
| Ph-NH—C(S)— MeLeu-Val-MeLeu-Ala-D-Ala-MeLeu-MeLeu-MeVal-MeBmt(OAc)-Abu-Sar-OMe | 90% yield |  |

Reference: patent US8450281B2 (Debiopharm S.A., priority 2007, dated 2013)
